Results of single-concentration screens

Data taken from ChEMBL document CHEMBL3988442, “University of Dundee, Small-Polar-MMV Screening Library” (2021).

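Assay of Toxoplasma gondii numbers, read through their beta-galactosidase reporter with a colour substrate. Tested at 50 µM. The record gives no direction; the compounds picked for IC50 retests had high values, so higher reads as fewer parasites. Size under these conditions: about 18,000 compounds, about 170 of them at 50% or above in at least one test.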

Values are the deposited “Percent Effect”, in %. The record does not define 0% and 100%; most values in the screen are far below 50% and negative numbers occur (in some assays of this library far below -100). Compounds were drawn at random from those tested, without regard to their results.

- CC(C)n1cc(Br)cc1C(=O)NCCCO | 1.435%
- CC(=O)NC1CCNC1 (centres unmarked) | 26.97%
- CN(CCC(O)c1ccccc1)C(=O)c1cc(Cl)c[nH]1 (centres unmarked) | 11%
- O=C(Cc1cccc(F)c1F)NCC1CCNCC1 | -12.06%
- CC1=CC[C@@H]2CN(C(=O)CCn3nnnc3C)C[C@@H]2C1 | 2.624%
- Cc1ccc(S(=O)(=O)NCCN)cc1C(F)(F)F | 0.3344%
- CNC(=O)NC(=O)CCN1CCCCC1 | -8.963%
- CN(C)Cc1ccc(-c2nc(C3CCOC3)no2)o1 (centres unmarked) | 5.168%
- O=C1CCN(Cc2cccs2)CC1 | -0.9879%
- CC(CO)SCc1cc(=O)n2ccccc2n1 (centres unmarked) | -7.343%
- COc1ccc(C(=O)C2CCNCC2)cc1OC | -1.756%
- O=C(NC(C1CCNCC1)[C@H]1C[C@H](O)C1)C1CC=CC1 (some centres unmarked) | -3.099%
- CSCCC1(C)NCCc2[nH]cnc21 (centres unmarked) | 8.738%
- CC1(C)C(=O)NCCN1C(=O)c1cccc2cc[nH]c12 | -8.596%
- CN1CCN(CC(=O)Nc2ccccc2)CC1 | -11.89%
- COCC(C)NC(=O)c1cnn(C)c1 (centres unmarked) | -5.873%
- COCCNC1CCCc2cccnc21 (centres unmarked) | -16.15%
- NS(=O)(=O)c1ncc[nH]1 | -8.672%
- Cc1nc(C(=O)NCCN2CCOCC2)co1 | 0.7677%
- OCC1CCCN(c2ncccn2)C1 (centres unmarked) | 0.6441%
- CC(C)Oc1cc(N2CCN(CCO)CC2)nc(N)n1 | -1.452%
- Nc1nc(-c2ccncc2Cl)ns1 | 17.76%
- COc1ccc(OC)c(C(=O)NCc2c[nH]nn2)c1 | 7.597%
- Cc1ccc(NC(=O)C(C)N)cc1 (centres unmarked) | 6.838%
- O=C(c1cncc(Cl)c1)N1CCCC1c1ccccn1 (centres unmarked) | -10.28%
- CS(=O)(=O)c1cccc(C(=O)NCC2(O)CCNC2)c1 (centres unmarked) | -5.499%
- COc1cc(CNC(C)C)cc(Br)c1OCC(N)=O | 2.759%
- COCc1cc(=O)[nH]c(C2(N)CCCC2)n1 | -2.735%
- Cc1ccc(C(=O)N(C)C(C)CN)cc1C (centres unmarked) | 7.167%
- N#Cc1ccc(CN2CCn3ccnc3C2)cc1 | -1.32%
- CC1CN(C)CCC1=O (centres unmarked) | 95.15%
- NC(=O)c1ccc(NCC(=O)N2CCOCC2)cc1Cl | -3.341%
- CC(C)OCCC(=O)NCC(C)(C)N1CC[S+]([O-])CC1 | -0.3877%
- CCc1ccccc1NC(=O)CS(=O)(=O)CC | -6.494%
- N#Cc1ccc(CNc2ncccc2S(N)(=O)=O)cc1 | -2.848%
- CC(O)(CCN)c1ccccc1 (centres unmarked) | 16.77%
- COc1cc(CNC(=O)N[C@H](CO)C(C)C)ccc1C | -14.5%
- CCN(C(=O)CSc1ncccn1)C1CCS(=O)(=O)C1 (centres unmarked) | -9.85%
- CC(C)CCNC(=O)c1ccc2c(c1)C(=O)N(C)C2=O | -4.822%
- CCn1ccc(C(=O)NCc2ccco2)n1 | -13.38%

For reference, 5 entries once more:

compound,percent effect
N#Cc1ccc(CN2CCn3ccnc3C2)cc1,-1.32%
Cc1ccc(S(=O)(=O)NCCN)cc1C(F)(F)F,0.3344%
O=C1CCN(Cc2cccs2)CC1,-0.9879%
Nc1nc(-c2ccncc2Cl)ns1,17.76%
CC(C)Oc1cc(N2CCN(CCO)CC2)nc(N)n1,-1.452%